Data on 19 compounds can be found in PubChem BioAssay AID248 (DTP/NCI, 2004).

The list does not hold the whole screen: it gathers tests that were run many times, whatever their T/C, doses with no T/C, and many T/C values between a quarter and a half above the control. Other doses and runs of a compound stand elsewhere. T/C gives the treated animals as a percentage of the vehicle group. Some doses have a count of surviving animals in place of a T/C: the source files T/C as zero there, which appears to mark a toxic dose or a test without result, not a measured value. Some doses without a T/C left all or most animals alive at the check, yet need not have been tolerated: the source hardly ever lists a survival T/C far under the control, and the zero likely stands for such cases as well. Counts of survivors are from the toxicity check (mostly the fifth day) where no day follows; animals may have died later. Schedules are NCI's codes, taken here to give the interval after Q, in days (D) or hours (H), and the number of doses after X. Some entries hold several experiments; their values stand side by side, smallest first. Some schedule codes hold Z or #, which are not explained here. Where survival is the endpoint, the PubChem record calls one and a half times the control and up active, and a quarter to a half above the control has no call in these data; cut-offs in other NCI protocols can differ. Marks such as (2×) say how often a value occurs here.

For the test, the system named is L1210 leukemia ip in BDF1 mice, survival T/C. In words: NCI In Vivo Anticancer Drug Screen. Data for tumor model L1210 Leukemia (intraperitoneal) in B6D2F1 (BDF1) mice. The following applies: T/C endpoint: mean survival time, higher T/C = longer survival.
The mark [1] stands for this setting: dose: 400.0 mg/kg/injection, schedule: Q01DX001 (ip), vehicle: saline.
[2] abbreviates: dose: 200.0 mg/kg/injection, schedule: Q04DX003 (ip), vehicle: Klucel (hydroxypropylcellulose) (HPC).
The mark [3] stands for this setting: dose: 150.0 mg/kg/injection, schedule: Q01DX009 (ip), vehicle: Klucel (hydroxypropylcellulose) (HPC).
Setting [4] is: dose: 4.0 mg/kg/injection, schedule: Q01DX Z (ip), vehicle: saline.
Setting [5] is: dose: 50.0 mg/kg/injection, schedule: Q04DX002 (ip), vehicle: saline with Tween-80.
Setting [6] is: dose: 100.0 mg/kg/injection, schedule: Q04DX002 (ip), vehicle: saline with Tween-80.
Setting [7] is: dose: 200.0 mg/kg/injection, schedule: Q04DX002 (ip), vehicle: saline with Tween-80.

Turning to `O=NN(CCCl)C(=O)NC1CCS(=O)(=O)CC1`, the T/C is 139 % of control (dose: 3.0 mg/kg/injection, schedule: Q01DX001 (ip), vehicle: carboxymethylcellulose (CMC)) and 135 % of control (dose: 27.0 mg/kg/injection, schedule: Q01DX001 (ip), vehicle: carboxymethylcellulose (CMC)). The survivor count (dose: 50.0 mg/kg/injection, schedule: Q01DX001 (ip), vehicle: carboxymethylcellulose (CMC)) is 6 of 6; the survivor count (dose: 75.0 mg/kg/injection, schedule: Q01DX001 (ip), vehicle: carboxymethylcellulose (CMC)) was 3 of 6; the survivor count (dose: 150.0 mg/kg/injection, schedule: Q01DX001 (ip), vehicle: carboxymethylcellulose (CMC)) was 1 of 6; the survivor count (dose: 200.0 mg/kg/injection, schedule: Q01DX001 (ip), vehicle: carboxymethylcellulose (CMC)) is listed as 0 of 6; the survivor count (dose: 300.0 mg/kg/injection, schedule: Q01DX001 (ip), vehicle: carboxymethylcellulose (CMC)) is 0 of 6; the survivor count (dose: 350.0 mg/kg/injection, schedule: Q01DX001 (ip), vehicle: carboxymethylcellulose (CMC)) is 0 of 6. In addition, the survivor count was 0 of 6 (dose: 375.0 mg/kg/injection, schedule: Q01DX001 (ip), vehicle: carboxymethylcellulose (CMC)) and 0 of 6 (dose: 500.0 mg/kg/injection, schedule: Q01DX001 (ip), vehicle: carboxymethylcellulose (CMC)).

Regarding `OC1C2CCC(CC2)C1O` (stereo unspecified), the survivor count runs as follows: (dose: 37.0 mg/kg/injection, schedule: Q01DX001 (ip), vehicle: other) 3 of 6; (dose: 75.0 mg/kg/injection, schedule: Q01DX001 (ip), vehicle: other) 2 of 6; (dose: 150.0 mg/kg/injection, schedule: Q01DX001 (ip), vehicle: other) 0 of 6; (dose: 300.0 mg/kg/injection, schedule: Q01DX001 (ip), vehicle: other) 0 of 6.

In the case of `CCCCCC[n+]1cccc(C#N)c1`, the survivor count (dose: 300.0 mg/kg/injection, schedule: Q04DX003 (ip), vehicle: saline) is listed as 0 of 6.

Take `CC12CCC(CC1)C2CO` (stereo unspecified): the survivor count (dose: 200.0 mg/kg/injection, schedule: Q01DX009 (ip), vehicle: saline with Tween-80) is given as 6 of 6.

For the compound `Oc1ccc(O)c2c1C1c3ccccc3C2c2ccccc21`, the survivor count under setting [1] is 6 of 6.

For `[CH3][Sb]([CH3])[S]C1OC(CO)C(O)C(O)C1O` (stereo unspecified), the survivor count runs as follows: (dose: 100.0 mg/kg/injection, schedule: Q04DX003 (ip), vehicle: Klucel (hydroxypropylcellulose) (HPC)) 0 of 3; under setting [2], 0 of 3; (dose: 400.0 mg/kg/injection, schedule: Q04DX003 (ip), vehicle: Klucel (hydroxypropylcellulose) (HPC)) 0 of 3.

In the case of `CN(C)N=Nc1ccccc1C(=O)NNC(N)=S`, the survivor count runs as follows: (dose: 18.75 mg/kg/injection, schedule: Q01DX009 (ip), vehicle: Klucel (hydroxypropylcellulose) (HPC)) 5 of 6; under setting [3], 3 of 6; (dose: 300.0 mg/kg/injection, schedule: Q01DX009 (ip), vehicle: Klucel (hydroxypropylcellulose) (HPC)) 1 of 6 and 3 of 6. Also, the T/C was 129 % of control (dose: 37.5 mg/kg/injection, schedule: Q01DX009 (ip), vehicle: Klucel (hydroxypropylcellulose) (HPC)); 126 % of control (dose: 75.0 mg/kg/injection, schedule: Q01DX009 (ip), vehicle: Klucel (hydroxypropylcellulose) (HPC)); 126 % of control under setting [3].

Take `CCOC(=O)N(C1CCCCC1)P(=O)(OCC)OCC`: the survivor count (dose: 400.0 mg/kg/injection, schedule: Q04DX003 (ip), vehicle: saline) is 2 of 6.

On to `O=P(N1CCCCC1)(N1CC1)N1CC1`, for which the T/C runs as follows: (dose: 1.0 mg/kg/injection, schedule: Q01DX Z (ip), vehicle: saline) 149 % of control; under setting [4], 147 % of control; (dose: 9.0 mg/kg/injection, schedule: Q01DX Z (ip), vehicle: saline) 143 % of control; (dose: 14.0 mg/kg/injection, schedule: Q01DX Z (ip), vehicle: saline) 145 % of control; (dose: 15.0 mg/kg/injection, schedule: Q01DX015 (ip), vehicle: saline) 148 % of control; (dose: 20.0 mg/kg/injection, schedule: Q01DX001 (ip), vehicle: saline) 129 % of control. The survivor count was 5 of 6 under setting [4]; 5 of 6 (dose: 30.0 mg/kg/injection, schedule: Q01DX011 (ip), vehicle: saline); 4 of 6 (dose: 32.0 mg/kg/injection, schedule: Q01DX Z (ip), vehicle: saline); 2 of 4 (dose: 40.0 mg/kg/injection, schedule: Q01DX001 (ip), vehicle: saline); 2 of 4 and 3 of 4 (dose: 80.0 mg/kg/injection, schedule: Q01DX001 (ip), vehicle: saline); 5 of 6 (dose: 100.0 mg/kg/injection, schedule: Q01DX001 (ip), vehicle: saline). The survivor count is recorded as 6 of 6 (dose: 200.0 mg/kg/injection, schedule: Q01DX001 (ip), vehicle: saline) and 0 of 6 under setting [1].

Turning to `Nc1nc2ncc(CNc3ncc(C(=O)NC(CCC(=O)O)C(=O)O)s3)nc2c(=O)[nH]1` (stereo unspecified), the survivor count (dose: 200.0 mg/kg/injection, schedule: Q01DX001 (ip), vehicle: other) is 1 of 6.

As for `COc1ccc(/C=C\C(=O)NCCCCNC(=O)/C=C/c2ccc(OC)cc2)cc1`, the survivor count under setting [1] is recorded as 6 of 6.

With `CC(=O)N(c1ccncc1)c1ccc(NC(=O)c2ccc(N3C(=O)c4ccccc4C3=O)cc2[N+](=O)[O-])cc1`, the T/C runs as follows: under setting [5], 98 (2×) and 109 % of control; under setting [6], 90, 93, 96, 98, 106, 108 % of control; under setting [7], 92, 93, 95, 100 % of control. Also, the survivor count is 1 of 3 under setting [5] and 3 of 3 under setting [7].

As for `O=S1(=O)C=CCCC=C1`, the survivor count reads like this: (dose: 25.0 mg/kg/injection, schedule: Q04DX002 (ip), vehicle: Klucel (hydroxypropylcellulose) (HPC)) 3 of 3; (dose: 150.0 mg/kg/injection, schedule: Q04DX002 (ip), vehicle: Klucel (hydroxypropylcellulose) (HPC)) 0 of 3; (dose: 300.0 mg/kg/injection, schedule: Q04DX002 (ip), vehicle: Klucel (hydroxypropylcellulose) (HPC)) 0 of 3.

Consider `O=C(O)C1CCC(C(=O)O)c2ccccc21` (stereo unspecified), for which, under setting [2], the survivor count is on record as 6 of 6.

Consider `O=C(C[P+](c1ccccc1)(c1ccccc1)c1ccccc1)c1ccccc1`, for which the survivor count reads like this: (dose: 200.0 mg/kg/injection, schedule: Q01DX001 (ip), vehicle: Klucel (hydroxypropylcellulose) (HPC)) 1 of 6; (dose: 400.0 mg/kg/injection, schedule: Q01DX001 (ip), vehicle: Klucel (hydroxypropylcellulose) (HPC)) 0 of 6.

With `Cc1ccc(Cl)cc1NC(=O)N1CCN(c2ccccc2)CC1`, the survivor count runs as follows: under setting [6], 6 of 6; (dose: 400.0 mg/kg/injection, schedule: Q01DX009 (ip), vehicle: saline with Tween-80) 6 of 6.

For `O=C(O)/C=C\Br`, the survivor count (dose: 200.0 mg/kg/injection, schedule: Q01DX005 (ip), vehicle: Klucel (hydroxypropylcellulose) (HPC)) is listed as 0 of 3.

With `COc1cc(-c2nc(-c3ccc(N=Cc4ccc(N(CCOS(C)(=O)=O)CCOS(C)(=O)=O)cc4C)cc3)cs2)cc(OC)c1OC`, the T/C (dose: 100.0 mg/kg/injection, schedule: Q04DX003 (ip), vehicle: saline with Tween-80, evaluated on day 20) is 127 and 140 % of control; the T/C (dose: 100.0 mg/kg/injection, schedule: Q04DX003 (ip), vehicle: saline with Tween-80, evaluated on day 30) is 93 and 132 % of control. Further, under “dose: 400.0 mg/kg/injection, schedule: Q04DX003 (ip), vehicle: saline with Tween-80”, the survivor count is 3 of 6.

Turning to `O=S(O)c1cc(Br)ccc1Br`, the survivor count (dose: 400.0 mg/kg/injection, schedule: Q01DX009 (ip), vehicle: Klucel (hydroxypropylcellulose) (HPC)) is on record as 2 of 6.
